This passage reports Odor results from patent US20100056636A1, “N-Substituted-P-Menthane-3-Carboxamide and Uses Thereof” (priority 2006, published 2010).

The series can be described thus: Odor of the tested chemicals (Table I). Also noted: species or system human.
As for `CC1CCC(C(C)C)C(C(=O)NCC(O)c2ccccc2)C1` (stereo not shown) [Example 1, 2-isopropyl-5-methyl-cyclohexanecarboxylic acid (2-hydroxy-2-phenylethyl)-amide], the Odor entry is given as “None”. Take `CC1CCC(C(C)C)C(C(=O)NCCc2ccccc2)C1` (stereo not shown) [Example 2, 2-isopropyl-5-methyl-cyclohexanecarboxylic acid phenylethyl-amide]: the Odor entry is “None”. On to `CCOc1ccccc1CCNC(=O)C1CC(C)CCC1C(C)C` (stereo not shown) [Example 5, N-(2-ethoxyphenethyl)-2-isopropyl-5-methylcyclohexane-carboxamide], for which the Odor result is listed as “None”. In the case of `CC1CCC(C(C)C)C(C(=O)N[C@H]2C[C@H]2c2ccccc2)C1` (stereo partly drawn) [Example 6, 2-isopropyl-5-methyl-N-((1S,2S)-2-phenylcyclopropyl)-cyclohexanecarboxamide], the Odor result is “None”. Next, `CCNC(=O)C1CC(C)CCC1C(C)C` (stereo not shown) [WS-3, N-Ethyl-p-menthane-3-carboxamide, reference compound]: “None”. For the compound `CC1CCC(C(C)C)C(O)C1` (stereo not shown) [menthol, reference compound], the Odor result is given as “Minty”. In the case of “N-(3,4-dimethylphenethyl)-2-isopropyl-5-ethylcyclo-hexanecarboxamide [Example 7]”, the Odor entry is “None”.
